From the supplement of paper PMC10849652
Some of the results follow. Residues, ends and D or L forms follow the SMILES beside them. *: point of attachment. Cbz = O=C(OCc1ccccc1)*

The chains behind the UniProt entries cited, without tags or fusion partners. Where a name states a change or a piece, a line headed by the entry shows the natural chain unless it says otherwise.
UniProt Q5W111: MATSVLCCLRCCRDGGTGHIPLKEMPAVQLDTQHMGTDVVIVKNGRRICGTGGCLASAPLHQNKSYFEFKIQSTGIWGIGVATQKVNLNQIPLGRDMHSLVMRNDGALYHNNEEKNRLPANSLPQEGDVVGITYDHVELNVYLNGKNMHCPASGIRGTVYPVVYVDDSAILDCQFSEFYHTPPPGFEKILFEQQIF
UniProt O95793: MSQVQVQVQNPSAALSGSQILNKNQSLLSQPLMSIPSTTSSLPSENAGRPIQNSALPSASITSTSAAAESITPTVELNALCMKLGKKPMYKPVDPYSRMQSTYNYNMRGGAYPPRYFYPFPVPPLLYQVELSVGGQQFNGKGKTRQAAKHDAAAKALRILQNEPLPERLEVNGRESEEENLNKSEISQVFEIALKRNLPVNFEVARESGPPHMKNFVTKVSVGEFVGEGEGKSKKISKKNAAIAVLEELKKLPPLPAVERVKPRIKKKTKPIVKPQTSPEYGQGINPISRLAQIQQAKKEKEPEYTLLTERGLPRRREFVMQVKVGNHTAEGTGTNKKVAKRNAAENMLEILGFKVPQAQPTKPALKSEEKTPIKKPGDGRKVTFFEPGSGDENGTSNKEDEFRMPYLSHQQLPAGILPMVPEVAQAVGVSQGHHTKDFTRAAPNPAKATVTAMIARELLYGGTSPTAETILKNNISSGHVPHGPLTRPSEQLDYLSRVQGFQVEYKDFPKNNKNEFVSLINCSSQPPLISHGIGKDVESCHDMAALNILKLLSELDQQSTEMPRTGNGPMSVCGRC
UniProt Q9HBM1: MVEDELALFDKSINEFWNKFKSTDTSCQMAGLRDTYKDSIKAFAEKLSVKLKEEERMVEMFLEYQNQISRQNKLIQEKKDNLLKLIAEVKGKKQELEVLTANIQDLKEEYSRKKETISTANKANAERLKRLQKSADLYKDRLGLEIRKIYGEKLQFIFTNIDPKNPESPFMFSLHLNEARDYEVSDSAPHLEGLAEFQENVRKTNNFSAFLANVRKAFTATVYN
UniProt Q9BVQ7: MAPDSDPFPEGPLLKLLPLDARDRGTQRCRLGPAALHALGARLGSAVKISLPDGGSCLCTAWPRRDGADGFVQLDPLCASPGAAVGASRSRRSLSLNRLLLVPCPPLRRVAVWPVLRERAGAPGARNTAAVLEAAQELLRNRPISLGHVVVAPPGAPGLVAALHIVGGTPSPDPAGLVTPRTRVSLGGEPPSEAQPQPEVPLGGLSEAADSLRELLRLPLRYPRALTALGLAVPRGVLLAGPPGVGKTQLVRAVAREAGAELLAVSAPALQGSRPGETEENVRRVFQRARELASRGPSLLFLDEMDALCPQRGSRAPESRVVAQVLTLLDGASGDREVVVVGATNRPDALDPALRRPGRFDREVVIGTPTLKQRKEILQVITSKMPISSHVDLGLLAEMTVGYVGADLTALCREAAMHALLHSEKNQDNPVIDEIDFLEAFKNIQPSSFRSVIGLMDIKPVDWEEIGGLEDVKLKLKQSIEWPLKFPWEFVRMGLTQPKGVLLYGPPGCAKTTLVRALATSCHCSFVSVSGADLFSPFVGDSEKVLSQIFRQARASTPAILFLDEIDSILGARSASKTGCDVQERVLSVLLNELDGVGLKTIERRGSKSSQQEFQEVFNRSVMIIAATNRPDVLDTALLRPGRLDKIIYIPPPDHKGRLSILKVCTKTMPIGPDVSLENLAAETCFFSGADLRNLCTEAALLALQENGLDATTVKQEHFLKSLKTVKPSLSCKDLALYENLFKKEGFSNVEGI
UniProt O43805: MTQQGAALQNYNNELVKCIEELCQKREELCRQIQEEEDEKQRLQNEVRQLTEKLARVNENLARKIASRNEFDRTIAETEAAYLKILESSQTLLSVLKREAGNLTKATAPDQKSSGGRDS
UniProt Q9UNL2: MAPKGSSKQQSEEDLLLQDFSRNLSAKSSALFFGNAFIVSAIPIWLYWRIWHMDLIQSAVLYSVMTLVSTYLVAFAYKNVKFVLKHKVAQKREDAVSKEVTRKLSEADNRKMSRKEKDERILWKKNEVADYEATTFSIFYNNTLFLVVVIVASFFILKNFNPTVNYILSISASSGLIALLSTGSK
UniProt P11277, whole entry, looked up: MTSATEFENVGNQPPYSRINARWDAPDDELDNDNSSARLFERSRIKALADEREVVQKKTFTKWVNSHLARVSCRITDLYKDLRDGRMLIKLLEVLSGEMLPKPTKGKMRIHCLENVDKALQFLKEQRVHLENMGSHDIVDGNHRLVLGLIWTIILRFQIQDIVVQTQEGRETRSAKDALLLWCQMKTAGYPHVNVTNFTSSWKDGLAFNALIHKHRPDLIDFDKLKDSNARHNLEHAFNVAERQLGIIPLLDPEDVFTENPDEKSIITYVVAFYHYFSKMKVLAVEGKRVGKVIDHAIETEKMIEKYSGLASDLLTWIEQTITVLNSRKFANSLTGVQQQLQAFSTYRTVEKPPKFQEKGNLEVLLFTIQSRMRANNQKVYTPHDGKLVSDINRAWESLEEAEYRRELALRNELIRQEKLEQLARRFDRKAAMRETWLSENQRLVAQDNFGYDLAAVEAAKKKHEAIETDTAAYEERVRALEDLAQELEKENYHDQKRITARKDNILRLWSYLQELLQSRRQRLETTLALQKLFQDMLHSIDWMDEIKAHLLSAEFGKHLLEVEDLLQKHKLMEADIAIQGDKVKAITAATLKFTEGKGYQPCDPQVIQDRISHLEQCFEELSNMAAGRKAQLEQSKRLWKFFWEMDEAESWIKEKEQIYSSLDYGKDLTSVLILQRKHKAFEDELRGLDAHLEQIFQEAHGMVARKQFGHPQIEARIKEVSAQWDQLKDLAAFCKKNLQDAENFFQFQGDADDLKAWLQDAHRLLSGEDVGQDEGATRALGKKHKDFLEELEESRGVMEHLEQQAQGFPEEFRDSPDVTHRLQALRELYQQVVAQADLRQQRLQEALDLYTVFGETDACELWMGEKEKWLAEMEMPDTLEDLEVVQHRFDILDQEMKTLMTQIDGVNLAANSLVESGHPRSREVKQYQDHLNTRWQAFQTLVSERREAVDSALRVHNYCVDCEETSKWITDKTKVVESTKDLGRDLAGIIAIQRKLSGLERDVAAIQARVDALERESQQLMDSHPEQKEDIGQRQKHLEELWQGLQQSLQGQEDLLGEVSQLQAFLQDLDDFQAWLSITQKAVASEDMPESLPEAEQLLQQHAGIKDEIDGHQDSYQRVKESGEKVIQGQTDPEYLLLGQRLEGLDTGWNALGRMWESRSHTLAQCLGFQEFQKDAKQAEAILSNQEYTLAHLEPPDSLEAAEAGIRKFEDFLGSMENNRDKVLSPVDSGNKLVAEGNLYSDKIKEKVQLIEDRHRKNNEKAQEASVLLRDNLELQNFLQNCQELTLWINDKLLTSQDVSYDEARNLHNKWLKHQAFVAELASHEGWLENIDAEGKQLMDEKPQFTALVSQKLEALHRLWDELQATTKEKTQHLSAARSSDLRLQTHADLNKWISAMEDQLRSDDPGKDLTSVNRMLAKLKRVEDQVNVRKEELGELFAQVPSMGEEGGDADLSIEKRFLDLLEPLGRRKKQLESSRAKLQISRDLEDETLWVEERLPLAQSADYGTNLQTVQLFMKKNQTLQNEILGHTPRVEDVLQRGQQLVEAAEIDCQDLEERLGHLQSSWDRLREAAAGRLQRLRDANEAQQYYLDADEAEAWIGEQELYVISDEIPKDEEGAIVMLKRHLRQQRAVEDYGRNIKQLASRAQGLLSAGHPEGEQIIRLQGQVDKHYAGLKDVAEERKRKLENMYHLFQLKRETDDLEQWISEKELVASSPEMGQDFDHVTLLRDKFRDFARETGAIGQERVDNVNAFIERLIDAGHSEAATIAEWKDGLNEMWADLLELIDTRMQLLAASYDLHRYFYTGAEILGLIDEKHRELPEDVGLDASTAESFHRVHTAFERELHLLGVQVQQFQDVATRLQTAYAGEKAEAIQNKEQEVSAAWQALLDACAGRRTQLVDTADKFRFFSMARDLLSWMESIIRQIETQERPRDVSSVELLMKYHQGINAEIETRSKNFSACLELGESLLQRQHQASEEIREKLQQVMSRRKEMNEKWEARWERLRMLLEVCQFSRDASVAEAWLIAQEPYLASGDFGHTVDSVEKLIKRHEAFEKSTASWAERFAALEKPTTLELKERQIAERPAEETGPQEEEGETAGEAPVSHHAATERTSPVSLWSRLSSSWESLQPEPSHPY
UniProt Q8NB90: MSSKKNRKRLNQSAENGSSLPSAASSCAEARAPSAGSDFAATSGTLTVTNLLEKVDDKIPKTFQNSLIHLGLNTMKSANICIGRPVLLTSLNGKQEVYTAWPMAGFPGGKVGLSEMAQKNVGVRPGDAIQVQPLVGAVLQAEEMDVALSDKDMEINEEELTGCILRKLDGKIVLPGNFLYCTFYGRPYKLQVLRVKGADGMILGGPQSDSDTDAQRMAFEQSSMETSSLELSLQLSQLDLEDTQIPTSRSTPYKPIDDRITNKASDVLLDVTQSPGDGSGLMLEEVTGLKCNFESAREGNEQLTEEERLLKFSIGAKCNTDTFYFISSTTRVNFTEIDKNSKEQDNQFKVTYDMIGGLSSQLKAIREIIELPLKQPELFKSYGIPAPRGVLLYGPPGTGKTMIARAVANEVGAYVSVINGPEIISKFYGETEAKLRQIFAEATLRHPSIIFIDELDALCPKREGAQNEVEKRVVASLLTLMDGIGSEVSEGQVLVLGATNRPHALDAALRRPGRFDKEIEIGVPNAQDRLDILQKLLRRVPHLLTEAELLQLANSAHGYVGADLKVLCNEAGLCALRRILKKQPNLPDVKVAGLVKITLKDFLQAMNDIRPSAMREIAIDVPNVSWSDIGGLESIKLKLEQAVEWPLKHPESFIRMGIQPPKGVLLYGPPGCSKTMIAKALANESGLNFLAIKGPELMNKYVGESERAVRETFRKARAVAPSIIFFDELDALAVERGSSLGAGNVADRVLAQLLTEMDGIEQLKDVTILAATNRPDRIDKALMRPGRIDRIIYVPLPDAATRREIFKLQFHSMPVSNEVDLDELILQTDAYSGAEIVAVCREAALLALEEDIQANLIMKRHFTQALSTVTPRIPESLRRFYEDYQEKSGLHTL
UniProt Q9UHB9: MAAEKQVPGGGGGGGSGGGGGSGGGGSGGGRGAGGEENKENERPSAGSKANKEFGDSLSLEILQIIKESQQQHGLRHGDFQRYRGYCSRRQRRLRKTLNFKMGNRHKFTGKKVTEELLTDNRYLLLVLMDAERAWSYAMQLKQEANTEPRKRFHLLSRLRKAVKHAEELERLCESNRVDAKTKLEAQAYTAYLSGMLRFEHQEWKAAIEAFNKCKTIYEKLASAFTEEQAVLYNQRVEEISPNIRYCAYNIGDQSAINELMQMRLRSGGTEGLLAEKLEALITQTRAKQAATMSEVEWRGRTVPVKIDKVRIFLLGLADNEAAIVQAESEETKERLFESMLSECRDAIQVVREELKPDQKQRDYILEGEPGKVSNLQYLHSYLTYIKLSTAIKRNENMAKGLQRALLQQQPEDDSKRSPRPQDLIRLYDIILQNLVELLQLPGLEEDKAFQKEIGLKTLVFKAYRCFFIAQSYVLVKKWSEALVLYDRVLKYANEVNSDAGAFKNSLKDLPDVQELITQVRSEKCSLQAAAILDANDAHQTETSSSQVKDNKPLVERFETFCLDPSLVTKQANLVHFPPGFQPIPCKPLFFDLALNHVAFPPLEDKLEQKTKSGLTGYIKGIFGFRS
UniProt Q08945, whole entry, looked up: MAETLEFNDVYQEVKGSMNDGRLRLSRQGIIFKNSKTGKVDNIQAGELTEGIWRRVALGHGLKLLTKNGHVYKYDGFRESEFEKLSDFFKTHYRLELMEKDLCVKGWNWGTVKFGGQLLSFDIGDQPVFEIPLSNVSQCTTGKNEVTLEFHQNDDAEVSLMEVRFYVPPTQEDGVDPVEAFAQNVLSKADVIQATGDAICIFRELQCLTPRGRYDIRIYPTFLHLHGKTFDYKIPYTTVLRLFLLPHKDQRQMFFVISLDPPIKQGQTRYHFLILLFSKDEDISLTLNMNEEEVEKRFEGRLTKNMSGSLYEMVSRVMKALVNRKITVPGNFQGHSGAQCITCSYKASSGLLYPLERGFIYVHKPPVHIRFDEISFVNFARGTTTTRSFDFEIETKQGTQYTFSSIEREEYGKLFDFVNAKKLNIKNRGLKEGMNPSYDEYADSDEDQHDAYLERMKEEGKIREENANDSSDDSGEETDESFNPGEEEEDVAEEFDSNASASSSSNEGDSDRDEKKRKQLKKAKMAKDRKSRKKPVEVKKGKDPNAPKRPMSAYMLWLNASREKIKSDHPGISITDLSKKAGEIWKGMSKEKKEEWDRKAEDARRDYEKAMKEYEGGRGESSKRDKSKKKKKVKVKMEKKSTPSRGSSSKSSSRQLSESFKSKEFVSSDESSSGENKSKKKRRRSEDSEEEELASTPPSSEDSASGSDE
UniProt P51571: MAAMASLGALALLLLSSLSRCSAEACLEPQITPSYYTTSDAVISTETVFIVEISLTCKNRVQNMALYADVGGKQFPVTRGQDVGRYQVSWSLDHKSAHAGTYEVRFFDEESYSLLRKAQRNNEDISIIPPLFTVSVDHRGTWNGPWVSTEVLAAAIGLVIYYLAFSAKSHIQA

Experiments:
Assay in all cases: log2 fold change, soluble protein after heating vs DMSO (PISA); higher = thermal stabilisation; K562 cells, 10 uM, 30 min; active = over 0.2 and 3.5 SD of the protein, either way, in both replicates (recomputed)
IRAK-1-4 Inhibitor I = compound: C1COCCN1CCN2C3=CC=CC=C3N=C2NC(=O)C4=CC(=CC=C4)[N+](=O)[O-] [IRAK-1-4 Inhibitor I]
In short: (§1)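 Soluble protein was quantified by TMTpro 16plex LC-MS/MS after channel sums were equalised. It was obtained as the supernatant after 21,000xg for 90 min from pooled aliquots of K562 cells (2×10^6 cells/mL, 10 μM compound, 30 min) heated for 3 min across 48°C-58°C and extracted in PBS with 0.5% NP-40 at 4°C. Thermal stability values are relative to control samples and come from duplicates. They are given as log2 fold changes.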

ibrutinib = compound: C=CC(=O)N1CCC[C@@H](n2nc(-c3ccc(Oc4ccccc4)cc3)c3c(N)ncnc32)C1 [ibrutinib]
In short: as §1

[1] = compound: CC(=O)c1cnc2ccc(-c3cc(Cl)c(O)c(Cl)c3)nc2c1N[C@H]1CC[C@H](CN(C)C)CC1
In short: as §1

ralimetinib = compound: CC(C)(C)Cn1c(N)nc2ccc(-c3[nH]c(C(C)(C)C)nc3-c3ccc(F)cc3)nc21 [ralimetinib]
In short: as §1

[2] = compound: CC(C)(O)CC(=O)NCCn1ccc2ncnc(Nc3ccc(Oc4cccc(C(F)(F)F)c4)c(Cl)c3)c21
In short: as §1

[3] = compound: CC(C)C1=C2N=C(C=C(N2N=C1)NCC3=CC=CC=C3)NCCCCCCN
In short: as §1

[4] = compound: CC(C)C[C@@H](C=O)NC(=O)[C@H](CC(C)C)NC(=O)[C@H](CC(C)C)NC(=O)OCc1ccccc1
In short: as §1

pinometostat = compound: CC(C)N(C[C@H]1O[C@@H](n2cnc3c(N)ncnc32)[C@H](O)[C@@H]1O)[C@H]1C[C@@H](CCc2nc3cc(C(C)(C)C)ccc3[nH]2)C1 [pinometostat]
In short: as §1

[5] = compound: CC1=C(C(CC(=O)N1)C2=CC=C(C=C2)C(F)(F)F)C(=O)NC3=C(C=C4C(=C3)C=NN4)F
In short: as §1

[6] = compound: CC1=C(C2=C(C=C1)C(=O)C3=CC=CC=C3N2CCCN)C
In short: as §1

Target | log2 fold change (IRAK-1-4 Inhibitor I) | log2 fold change (ibrutinib) | log2 fold change [1] | log2 fold change (ralimetinib) | log2 fold change [2] | log2 fold change [3] | log2 fold change [4] | log2 fold change (pinometostat) | log2 fold change [5] | log2 fold change [6]
SSBP1 (UniProt Q04837) | inactive: 0 | inactive: -0.011 | inactive: -0.011 | inactive: 0.074 | inactive: 0.085 | inactive: 0.121 | inactive: 0.034 | inactive: 0.041 | inactive: 0.008 | inactive: 0.075
SPRYD7 (UniProt Q5W111) | inactive: 0.057 | inactive: -0.005 | inactive: 0.014 | inactive: 0.002 | inactive: -0.138 | inactive: -0.041 | inactive: -0.025 | inactive: 0.002 | inactive: 0.04 | inactive: -0.01
SRR (UniProt Q9GZT4) | inactive: 0.035 | inactive: -0.013 | inactive: -0.04 | inactive: 0.007 | inactive: -0.089 | inactive: -0.014 | inactive: -0.007 | inactive: 0.011 | inactive: 0.004 | inactive: 0.138
STIP1 isoform 2 (UniProt P31948) | inactive: 0.018 | inactive: -0.008 | inactive: -0.017 | inactive: -0.049 | inactive: 0.009 | inactive: 0.021 | inactive: -0.011 | inactive: -0.071 | inactive: -0.023 | inactive: 0.01
STAU1 (UniProt O95793) | inactive: -0.168 | inactive: 0.052 | inactive: 0.129 | inactive: 0.148 | inactive: 0.081 | inactive: 0 | inactive: 0.2 | inactive: 0.428 | inactive: 0.067 | inactive: -0.581
SPC25 (UniProt Q9HBM1) | inactive: -0.016 | inactive: -0.036 | inactive: 0.055 | inactive: 0.058 | inactive: -0.128 | inactive: -0.183 | inactive: -0.006 | inactive: -0.006 | inactive: -0.04 | inactive: -0.085
SPATA5L1 (UniProt Q9BVQ7) | inactive: 0.021 | inactive: 0.04 | inactive: -0.012 | inactive: 0.004 | inactive: 0.017 | inactive: 0.072 | inactive: 0.016 | inactive: -0.015 | inactive: -0.006 | inactive: 0.14
SSNA1 (UniProt O43805) | inactive: -0.001 | inactive: 0.008 | inactive: 0.016 | inactive: -0.021 | inactive: -0.034 | inactive: 0.023 | inactive: -0.036 | inactive: -0.156 | inactive: 0.001 | inactive: 0.01
SPHK1 isoform 2 (UniProt Q9NYA1) | inactive: 0.054 | inactive: -0.021 | inactive: -0.204 | inactive: -0.072 | inactive: -0.001 | inactive: 0.09 | inactive: 0.014 | inactive: -0.046 | inactive: 0.004 | inactive: 0.02
SSR3 isoform 2 (UniProt Q9UNL2) | inactive: 0.158 | inactive: 0.029 | inactive: 0.132 | inactive: 0.06 | inactive: 0.031 | inactive: 0.01 | inactive: -0.049 | inactive: -0.134 | – | inactive: -0.022
SQSTM1 (UniProt Q13501) | inactive: -0.006 | inactive: 0.012 | active: -0.298 | inactive: -0.026 | inactive: 0.058 | inactive: -0.118 | inactive: 0.039 | inactive: 0.048 | – | inactive: -0.079
SPTAN1 isoform 2 (UniProt Q13813) | inactive: -0.025 | inactive: 0.012 | inactive: -0.058 | inactive: 0.035 | inactive: 0.078 | inactive: 0.005 | inactive: -0.02 | inactive: -0.018 | inactive: -0.009 | inactive: 0.009
STARD7 (UniProt Q9NQZ5) | inactive: -0.012 | inactive: 0.055 | inactive: -0.026 | inactive: -0.01 | inactive: -0.051 | inactive: -0.057 | inactive: 0.028 | inactive: -0.009 | – | inactive: -0.003
SPTB isoform 2 (UniProt P11277) | inactive: -0.026 | inactive: -0.047 | inactive: -0.005 | inactive: 0.179 | inactive: 0.038 | inactive: -0.139 | inactive: 0.171 | inactive: 0.309 | inactive: 0.201 | inactive: -0.029
SPTLC2 (UniProt O15270) | inactive: -0.012 | inactive: -0.026 | inactive: -0.034 | inactive: -0.02 | inactive: 0.014 | inactive: -0.031 | inactive: 0.005 | inactive: -0.026 | inactive: -0.05 | inactive: 0.007
STAG1 (UniProt Q8WVM7) | inactive: -0.035 | inactive: -0.06 | inactive: -0.161 | inactive: -0.053 | inactive: -0.038 | inactive: -0.006 | inactive: -0.039 | inactive: -0.021 | inactive: -0.021 | inactive: -0.115

Target | log2 fold change (IRAK-1-4 Inhibitor I) | log2 fold change (ibrutinib) | log2 fold change [1] | log2 fold change (ralimetinib) | log2 fold change [2] | log2 fold change [3] | log2 fold change [4] | log2 fold change (pinometostat) | log2 fold change [5] | log2 fold change [6]
SPATA5 (UniProt Q8NB90) | inactive: 0.011 | inactive: 0.027 | inactive: 0.028 | inactive: 0.033 | inactive: 0.008 | inactive: 0.065 | inactive: -0.012 | inactive: -0.03 | inactive: 0.014 | inactive: 0.084
SPG21 (UniProt Q9NZD8) | inactive: -0.042 | inactive: -0.167 | inactive: -0.046 | inactive: 0.014 | inactive: 0.043 | inactive: -0.007 | inactive: 0.021 | inactive: 0.019 | – | inactive: 0.072
SPECC1 (UniProt Q5M775) | inactive: 0.01 | inactive: -0.068 | inactive: -0.035 | inactive: -0.107 | inactive: 0.025 | inactive: 0.08 | inactive: 0.003 | inactive: -0.25 | – | inactive: -0.01
SRP19 (UniProt P09132) | inactive: 0.016 | inactive: 0.011 | inactive: 0.018 | inactive: 0.137 | inactive: -0.078 | inactive: -0.153 | inactive: -0.026 | inactive: 0.056 | inactive: -0.019 | inactive: -0.034
SRP68 (UniProt Q9UHB9) | inactive: -0.118 | inactive: -0.037 | inactive: 0.014 | inactive: 0.071 | inactive: -0.065 | inactive: -0.272 | inactive: 0.065 | inactive: 0.145 | – | active: -0.345
SPTA1 (UniProt P02549) | inactive: -0.103 | inactive: -0.05 | inactive: 0.051 | inactive: 0.205 | inactive: 0.018 | inactive: -0.313 | inactive: 0.171 | inactive: 0.29 | inactive: -0.038 | inactive: -0.096
ST6GAL1 (UniProt P15907) | inactive: -0.01 | inactive: 0.002 | inactive: 0.021 | inactive: 0.041 | inactive: 0.058 | inactive: -0.051 | inactive: -0.009 | inactive: 0.024 | – | inactive: 0.011
SPARC (UniProt P09486) | inactive: -0.01 | inactive: 0.116 | inactive: 0.059 | inactive: 0.011 | inactive: 0.196 | inactive: 0.171 | inactive: -0.002 | inactive: -0.092 | inactive: 0.028 | inactive: -0.089
SRPK2 isoform 2 (UniProt P78362) | inactive: -0.097 | inactive: -0.003 | inactive: 0.328 | inactive: 0.182 | inactive: 0.026 | inactive: -0.011 | inactive: 0.13 | inactive: 0.346 | inactive: 0.065 | inactive: -0.4
SSRP1 (UniProt Q08945) | inactive: -0.044 | inactive: -0.037 | inactive: -0.138 | inactive: -0.022 | inactive: -0.008 | inactive: -0.119 | inactive: 0 | inactive: -0.036 | – | active: -0.554
SSR1 (UniProt P43307) | inactive: 0.08 | inactive: 0.028 | inactive: 0.006 | inactive: -0.077 | inactive: 0.02 | inactive: -0.033 | inactive: 0 | inactive: -0.016 | inactive: 0.034 | inactive: 0.008
ST3GAL2 (UniProt Q16842) | inactive: -0.183 | inactive: -0.105 | inactive: -0.115 | inactive: -0.009 | inactive: 0.119 | inactive: -0.12 | inactive: 0.066 | inactive: -0.031 | – | inactive: 0.046
SSR4 (UniProt P51571) | inactive: 0.003 | inactive: 0.032 | inactive: -0.033 | inactive: 0.049 | inactive: -0.034 | inactive: -0.03 | inactive: 0.032 | inactive: -0.028 | – | inactive: 0.09
SPTLC1 (UniProt O15269) | inactive: -0.016 | inactive: -0.001 | inactive: -0.019 | inactive: -0.012 | inactive: -0.066 | inactive: -0.19 | inactive: 0.024 | inactive: 0.059 | inactive: 0.072 | inactive: 0.043
SRSF2 (UniProt Q01130) | inactive: -0.069 | inactive: 0.016 | inactive: -0.073 | inactive: 0.01 | inactive: 0.055 | inactive: 0.03 | inactive: 0.09 | inactive: 0.022 | – | inactive: -0.02

Part of the list above, tab-delimited.
Target	log2 fold change (IRAK-1-4 Inhibitor I)	log2 fold change (ibrutinib)	log2 fold change [1]	log2 fold change (ralimetinib)	log2 fold change [2]	log2 fold change [3]	log2 fold change [4]	log2 fold change (pinometostat)	log2 fold change [5]	log2 fold change [6]
ST6GAL1 (UniProt P15907)	inactive: -0.01	inactive: 0.002	inactive: 0.021	inactive: 0.041	inactive: 0.058	inactive: -0.051	inactive: -0.009	inactive: 0.024	–	inactive: 0.011
SRPK2 isoform 2 (UniProt P78362)	inactive: -0.097	inactive: -0.003	inactive: 0.328	inactive: 0.182	inactive: 0.026	inactive: -0.011	inactive: 0.13	inactive: 0.346	inactive: 0.065	inactive: -0.4
